In article PMC9727301:
No constants are given. Whether binding was seen depends on the method and setting. For some of these results: In cells and extracts the contact can be indirect. Some binding calls cover weakened binding; strength is not graded here. Tags and fused reporters may be left off the sequences shown.

Key:
[1] = biological target: T1, HD2C (Arabidopsis histone deacetylase 2C), yeast two-hybrid fusion (Arabidopsis thaliana) (UniProt Q9LZR5); experiment: two-hybrid; Matchmaker Gold system, Y2HGold strain co-transformed with pGBKT7 bait and pGADT7 prey; growth on SD-Leu/Trp/Ade/His (QDO) and QDO with X-alpha-Gal and Aureobasidin-A (QDO/X/A); both orientations
T1 sequence: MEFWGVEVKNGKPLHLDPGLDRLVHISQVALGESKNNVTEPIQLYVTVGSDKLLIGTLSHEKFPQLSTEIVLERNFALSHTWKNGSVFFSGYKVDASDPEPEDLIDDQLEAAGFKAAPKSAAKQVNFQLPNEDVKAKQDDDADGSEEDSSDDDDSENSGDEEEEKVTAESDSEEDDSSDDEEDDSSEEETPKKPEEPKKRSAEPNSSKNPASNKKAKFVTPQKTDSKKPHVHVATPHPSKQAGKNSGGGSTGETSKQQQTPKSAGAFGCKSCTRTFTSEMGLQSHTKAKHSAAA

[2] = biological target: T2, HD2A (Arabidopsis histone deacetylase 2A), yeast two-hybrid fusion (Arabidopsis thaliana) (UniProt Q9FVE6); experiment: as above
T2 sequence: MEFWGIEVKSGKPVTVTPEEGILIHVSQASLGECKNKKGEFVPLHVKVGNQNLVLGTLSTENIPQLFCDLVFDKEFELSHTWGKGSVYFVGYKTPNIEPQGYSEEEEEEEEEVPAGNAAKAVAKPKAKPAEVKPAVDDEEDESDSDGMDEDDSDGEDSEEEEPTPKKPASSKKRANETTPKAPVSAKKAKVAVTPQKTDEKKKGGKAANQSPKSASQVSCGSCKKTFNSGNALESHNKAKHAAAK

[3] = biological target: T3, HD2C (Arabidopsis histone deacetylase 2C), BiFC fusion (Arabidopsis thaliana) (UniProt Q9LZR5); experiment: split reporter; BiFC with YN and YC fusions co-infiltrated by Agrobacterium GV3101 into Nicotiana benthamiana leaf epidermis; YFP signal by confocal microscopy after 48-72 hours; both combinations
T3 sequence: T1 sequence

[4] = biological target: T4, HD2A (Arabidopsis histone deacetylase 2A), BiFC fusion (Arabidopsis thaliana) (UniProt Q9FVE6); experiment: as above
T4 sequence: T2 sequence

B1: HD2A (Arabidopsis histone deacetylase 2A), yeast two-hybrid fusion (protein, UniProt Q9FVE6 1-245)
chain: T2 sequence
binding [1]: binds

B2: HD2C (Arabidopsis histone deacetylase 2C), yeast two-hybrid fusion (protein, UniProt Q9LZR5 1-294)
chain: T1 sequence
binding [2]: binds

B3: HD2A (Arabidopsis histone deacetylase 2A), BiFC fusion (protein, UniProt Q9FVE6 1-245)
chain: T2 sequence
binding [3]: binds

B4: HD2C (Arabidopsis histone deacetylase 2C), BiFC fusion (protein, UniProt Q9LZR5 1-294)
chain: T1 sequence
binding [4]: binds
